Results as given in publication doi:10.1101/362988.
Results are given in words; binding and its absence hold for the method and conditions named. Binding seen in cells or lysates may run through a third protein. Some results given as binding are weak or reduced against the parent protein; the word gives no strength. For part of these data: Tags and fused reporters may be left off the sequences shown. Values belong to the molecule of their own block, whether it stands above or below them.

Key:
Test in all cases: co-IP
[1] = biological target: Mta2-GFP (mouse (endogenous in ES cells)) (UniProt Q9R190)
[2] = biological target: Mta1-Avi-3xFLAG (mouse (endogenous in ES cells)) (UniProt Q8K4B0)
[3] = biological target: Mta3-Avi-3xFLAG (mouse (endogenous in ES cells)) (UniProt Q924K8)
[4] = biological target: T1, Mta2-GFP (mouse (endogenous in ES cells)), Q9R190; conditions: remark: other sources report otherwise
T1 chain: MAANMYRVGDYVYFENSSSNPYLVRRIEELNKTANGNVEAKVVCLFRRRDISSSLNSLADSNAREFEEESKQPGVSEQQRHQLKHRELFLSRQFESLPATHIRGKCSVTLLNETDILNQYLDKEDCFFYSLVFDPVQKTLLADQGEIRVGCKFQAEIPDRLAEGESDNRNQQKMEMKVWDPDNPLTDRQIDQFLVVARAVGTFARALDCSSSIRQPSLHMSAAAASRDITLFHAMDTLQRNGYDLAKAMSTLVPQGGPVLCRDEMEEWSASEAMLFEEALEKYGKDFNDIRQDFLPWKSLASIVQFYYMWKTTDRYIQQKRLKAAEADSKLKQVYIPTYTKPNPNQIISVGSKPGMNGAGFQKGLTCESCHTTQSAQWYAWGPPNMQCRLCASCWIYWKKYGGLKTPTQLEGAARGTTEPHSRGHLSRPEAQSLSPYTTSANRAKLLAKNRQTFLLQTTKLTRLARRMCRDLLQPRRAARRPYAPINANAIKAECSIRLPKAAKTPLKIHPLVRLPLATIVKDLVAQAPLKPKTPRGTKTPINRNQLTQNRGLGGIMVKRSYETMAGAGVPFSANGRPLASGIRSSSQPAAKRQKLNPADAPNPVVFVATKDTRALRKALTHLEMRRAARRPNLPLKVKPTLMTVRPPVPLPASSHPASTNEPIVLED

[5] = biological target: T2, Mta3-Avi-3xFLAG (mouse (endogenous in ES cells)), Q924K8; conditions: remark: other sources report otherwise
T2 chain: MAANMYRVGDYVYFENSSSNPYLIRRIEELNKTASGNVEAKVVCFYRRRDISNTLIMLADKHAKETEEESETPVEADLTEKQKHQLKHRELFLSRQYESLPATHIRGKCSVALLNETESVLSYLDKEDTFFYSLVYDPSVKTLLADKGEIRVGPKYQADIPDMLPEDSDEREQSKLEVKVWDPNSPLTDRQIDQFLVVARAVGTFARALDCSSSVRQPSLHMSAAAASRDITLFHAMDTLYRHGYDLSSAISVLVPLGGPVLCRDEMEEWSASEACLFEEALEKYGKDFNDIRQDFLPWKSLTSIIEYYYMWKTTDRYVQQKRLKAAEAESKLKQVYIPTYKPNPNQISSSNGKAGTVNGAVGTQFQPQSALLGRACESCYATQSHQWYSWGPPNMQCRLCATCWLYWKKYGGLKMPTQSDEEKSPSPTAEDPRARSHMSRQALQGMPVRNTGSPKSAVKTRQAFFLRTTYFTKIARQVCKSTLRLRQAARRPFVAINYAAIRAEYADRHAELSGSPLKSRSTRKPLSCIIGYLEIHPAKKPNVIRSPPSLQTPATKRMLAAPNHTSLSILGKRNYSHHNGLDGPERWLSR

[6] = biological target: T3, Mta1-Avi-3xFLAG (mouse (endogenous in ES cells)), Q8K4B0; conditions: remark: other sources report otherwise
T3 chain: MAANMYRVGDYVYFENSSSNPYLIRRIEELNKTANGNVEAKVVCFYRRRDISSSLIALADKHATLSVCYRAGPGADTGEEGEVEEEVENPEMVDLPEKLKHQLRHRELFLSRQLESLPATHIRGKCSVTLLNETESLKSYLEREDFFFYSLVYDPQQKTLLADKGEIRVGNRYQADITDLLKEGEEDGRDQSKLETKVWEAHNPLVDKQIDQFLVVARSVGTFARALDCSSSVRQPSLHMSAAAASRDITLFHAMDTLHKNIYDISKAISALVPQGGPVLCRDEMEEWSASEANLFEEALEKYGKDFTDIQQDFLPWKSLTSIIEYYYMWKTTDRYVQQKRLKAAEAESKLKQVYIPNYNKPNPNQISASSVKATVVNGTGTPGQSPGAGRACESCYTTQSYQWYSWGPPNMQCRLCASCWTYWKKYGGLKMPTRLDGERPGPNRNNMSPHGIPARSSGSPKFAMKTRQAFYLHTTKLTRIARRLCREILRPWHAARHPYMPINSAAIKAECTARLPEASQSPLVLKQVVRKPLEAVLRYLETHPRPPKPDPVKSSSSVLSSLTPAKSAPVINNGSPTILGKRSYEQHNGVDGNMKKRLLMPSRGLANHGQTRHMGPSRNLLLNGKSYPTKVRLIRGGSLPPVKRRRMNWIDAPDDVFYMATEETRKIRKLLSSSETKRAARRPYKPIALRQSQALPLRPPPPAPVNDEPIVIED

binding [1]: binds
binding [2]: binds
Molecule: Mta3 (from UniProt Q924K8 1-591)

binding [3]: binds
binding [1]: binds
Molecule: Mta1 (from UniProt Q8K4B0 1-715)

binding [3]: binds
binding [2]: binds
Molecule: Mta2 (from UniProt Q9R190 1-668)

binding [4]: binds
B1: Mta2, Q9R190 1-668 (protein)
chain: T1 chain

binding [5]: binds
B2: Mta3, Q924K8 1-591 (protein)
chain: T2 chain

binding [6]: binds
B3: Mta1, Q8K4B0 1-715 (protein)
chain: T3 chain
